Our source for the binding values is paper doi:10.1101/2025.11.19.685371.

Chains of the proteins cited; added tags and fusions are not shown. Lines headed by an entry give the natural chain unless they say otherwise; changes in a name come on top. A line that says so, or that is headed by a name, gives the form on record, which may keep a tag or linker.
Alexa Fluor 488-labeled unlipidated ApoE3 (Trp210Cys mutant) (P02649, form named): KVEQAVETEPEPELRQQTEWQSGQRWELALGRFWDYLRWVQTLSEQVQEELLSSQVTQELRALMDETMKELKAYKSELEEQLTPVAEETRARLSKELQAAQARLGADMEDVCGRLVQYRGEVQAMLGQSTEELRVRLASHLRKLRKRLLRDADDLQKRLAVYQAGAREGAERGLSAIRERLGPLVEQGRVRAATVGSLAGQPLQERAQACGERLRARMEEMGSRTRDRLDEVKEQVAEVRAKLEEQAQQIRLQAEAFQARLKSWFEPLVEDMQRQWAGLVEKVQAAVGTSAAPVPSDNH

No constants are given. Whether binding was seen depends on the method and setting.

The assay has as its target Alexa Fluor 488-labeled unlipidated ApoE3 (Trp210Cys mutant) (human) (UniProt P02649). Briefly: fluorescence correlation spectroscopy.

Regarding “Alexa Fluor 488-labeled unlipidated ApoE3 (Trp210Cys mutant) (from UniProt P02649 19-317)”, the binding result was “no binding (tested: 1 nM)”.
